Record: PubChem BioAssay AID652272 (Drosophila RNAi Screening Center, 2013)
The deposit covers about 21,000 reagents; this is an unselected part of those with a known target gene and a result. Of all reagents, 503 (2.4%) were called active. 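Raw plate light values, not normalised; calls rest on replicate z-scores that were not deposited; hits include reporter decreases as well as increases.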 Not stated in the record: the amount of reagent, the time to read-out.

Aim: 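Finding fly genes that regulate Hedgehog signal transduction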 (primary screen)
System: Drosophila clone 8 (Cl8) cells
Reagents: long dsRNA against Drosophila genes
Read-out: 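Plate reader light from a firefly reporter under a ptc promoter fragment that responds to Hedgehog, with Renilla light as transfection reference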
Direction: firefly Hh reporter signal: higher = more ptc reporter light; Renilla reference signal: higher = more Renilla control light
Active means: 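Called a hit if the two-replicate mean z-score lies below -2 or above +3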
Meaning of the calls: active = hit: reporter lowered or raised; inactive = not a hit

Rbf (Retinoblastoma-family protein) [SID104198496]
- firefly Hh reporter signal, replicate 1: 77488
- firefly Hh reporter signal, replicate 2: 1.02e5
- Renilla reference signal, replicate 1: 1858
- Renilla reference signal, replicate 2: 3456
- activity call: inactive

CG17187 [SID104194973]
- firefly Hh reporter signal, replicate 1: 60992
- firefly Hh reporter signal, replicate 2: 1.30e5
- Renilla reference signal, replicate 1: 2640
- Renilla reference signal, replicate 2: 3893
- activity call: inactive

slif (slimfast) [SID104191427]
- firefly Hh reporter signal, replicate 1: 1.64e5
- firefly Hh reporter signal, replicate 2: 1.26e5
- Renilla reference signal, replicate 1: 6960
- Renilla reference signal, replicate 2: 5147
- activity call: inactive

sgll (sugarlethal) [SID104195234]
- firefly Hh reporter signal, replicate 1: 64147
- firefly Hh reporter signal, replicate 2: 80642
- Renilla reference signal, replicate 1: 2210
- Renilla reference signal, replicate 2: 2276
- activity call: inactive

Rac2 [SID104191054]
- firefly Hh reporter signal, replicate 1: 43692
- firefly Hh reporter signal, replicate 2: 72674
- Renilla reference signal, replicate 1: 5831
- Renilla reference signal, replicate 2: 5360
- activity call: inactive

Continued; the last 2 above are carried over.
sgll (sugarlethal) [SID104195234]
- firefly Hh reporter signal, replicate 1: 64147
- firefly Hh reporter signal, replicate 2: 80642
- Renilla reference signal, replicate 1: 2210
- Renilla reference signal, replicate 2: 2276
- activity call: inactive

Rac2 [SID104191054]
- firefly Hh reporter signal, replicate 1: 43692
- firefly Hh reporter signal, replicate 2: 72674
- Renilla reference signal, replicate 1: 5831
- Renilla reference signal, replicate 2: 5360
- activity call: inactive

bt (bent) [SID104196921]
- firefly Hh reporter signal, replicate 1: 1.25e5
- firefly Hh reporter signal, replicate 2: 52810
- Renilla reference signal, replicate 1: 2955
- Renilla reference signal, replicate 2: 1877
- activity call: inactive

bt (bent) [SID104196963]
- firefly Hh reporter signal, replicate 1: 1.35e5
- firefly Hh reporter signal, replicate 2: 73853
- Renilla reference signal, replicate 1: 3610
- Renilla reference signal, replicate 2: 2722
- activity call: inactive

Spn85F (Serpin 85F) [SID104194337]
- firefly Hh reporter signal, replicate 1: 4.81e5
- firefly Hh reporter signal, replicate 2: 1.08e5
- Renilla reference signal, replicate 1: 4842
- Renilla reference signal, replicate 2: 4842
- activity call: inactive

unc-5 [SID104185337]
- firefly Hh reporter signal, replicate 1: 4.65e5
- firefly Hh reporter signal, replicate 2: 2.50e5
- firefly Hh reporter signal, replicate 3: 52486
- Renilla reference signal, replicate 1: 2805
- Renilla reference signal, replicate 2: 6093
- activity call: inactive

unc-5 [SID104187503]
- firefly Hh reporter signal, replicate 1: 89344
- firefly Hh reporter signal, replicate 2: 92704
- Renilla reference signal, replicate 1: 2630
- Renilla reference signal, replicate 2: 6120
- activity call: inactive

unc-5 [SID104187504]
- firefly Hh reporter signal, replicate 1: 81584
- firefly Hh reporter signal, replicate 2: 76580
- Renilla reference signal, replicate 1: 2187
- Renilla reference signal, replicate 2: 4448
- activity call: inactive

CG43318 [SID104194791]
- firefly Hh reporter signal, replicate 1: 62109
- firefly Hh reporter signal, replicate 2: 83112
- Renilla reference signal, replicate 1: 1698
- Renilla reference signal, replicate 2: 2228
- activity call: inactive

CG11658 [SID104189644]
- firefly Hh reporter signal, replicate 1: 36013
- firefly Hh reporter signal, replicate 2: 54732
- firefly Hh reporter signal, replicate 3: 53101
- Renilla reference signal, replicate 1: 6855
- Renilla reference signal, replicate 2: 4144
- activity call: inactive

Rpn10 (Regulatory particle non-ATPase 10) [SID104191668]
- firefly Hh reporter signal, replicate 1: 71607
- firefly Hh reporter signal, replicate 2: 71242
- Renilla reference signal, replicate 1: 3459
- Renilla reference signal, replicate 2: 2696
- activity call: inactive
